Data from the supplement of paper PMC12889115.
The list shows a part of the results. Values are raw readings; no control value is given beside them.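 Primary screen: polymyxin B was added at a level permeabilizing Salmonella outer membranes while sparing inner membranes. DMSO wells, both with and without polymyxin B, established maximum growth. Plate-to-plate variation meant each plate was ranked on its own, and the lowest-OD600 compounds were selected as hits.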

Test system: Salmonella enterica serovar Typhimurium SL1344
Test: bacterial growth OD600 after 18 h with compound and polymyxin B; higher = more bacterial growth (less inhibition)
Details: 50 µM, Mueller-Hinton broth

Structure (SMILES)	bacterial growth OD600 (polymyxin B 1 µg/mL)	bacterial growth OD600 (polymyxin B 0.75 µg/mL)
CSCC(=O)N1CCCC(Nc2ccc(F)cc2)C1 (stereo unspecified)	0.988	
CN(Cc1ccc(F)cc1)C(=O)c1coc(CN2CCN(c3ncccn3)CC2)n1	0.963	
COc1ccc(-c2nn(-c3ccccc3C)cc2CN2CCN(C)C(=O)[C@@H]2C)cc1F	0.841	
Cc1c(CN2CCC(CO)(CCOc3ccccc3)CC2)c(=O)n(-c2ccccc2)n1C	0.838	
CN(CC1CCCN(CCc2ccc(Cl)cc2)C1)C(=O)c1ccnn1C (stereo unspecified)	0.78	
CC(C)CN1CCC(C2CCN(C(=O)COc3ccc(F)cc3)C2)CC1 (stereo unspecified)		0.857
CCOC(=O)C1(Cc2ccccc2Cl)CCN(C(=O)c2ccsc2)CC1	0.008	
CN1CCN([C@@H]2CCN(C(=O)c3ccc(F)c(Cl)c3)C[C@H]2O)CC1	1.04	
CC(Cn1cncn1)NC(=O)c1cc(COc2cccc(C(F)(F)F)c2)on1 (stereo unspecified)	0.927	
O=C(Nc1ccc(Oc2cccnc2)cc1)C1CCCCN1CCCC(F)(F)F (stereo unspecified)	0.978	
c1ccc(CCN2CCC(C3CCN(Cc4ncc[nH]4)C3)CC2)cc1 (stereo unspecified)		0.785
CCN1CC(CNC2CCN(c3ccc(CC(=O)NCCc4cccc(F)c4)cc3)CC2)CC1=O (stereo unspecified)		0.846
CC(=O)c1cc(CC(=O)N(C)CC2CCCN(CCc3ccc(Cl)cc3)C2)cs1 (stereo unspecified)	0.819	
CCCCN(Cc1ccccc1)C(=O)CCC1(Cc2ccco2)CCC(=O)N1 (stereo unspecified)		0.777
CN(Cc1ccccc1)C(=O)CCC1CCN(S(=O)(=O)c2ccccc2Cl)CC1	0.818	
Cc1ncc(CN2CCC(C3CCN(c4ncccn4)CC3)C2)n1C (stereo unspecified)		0.815

Ordered by number of heavy atoms (falling): part of the list above
Structure (SMILES)	bacterial growth OD600 (polymyxin B 1 µg/mL)	bacterial growth OD600 (polymyxin B 0.75 µg/mL)
CN(Cc1ccc(F)cc1)C(=O)c1coc(CN2CCN(c3ncccn3)CC2)n1	0.963	
O=C(Nc1ccc(Oc2cccnc2)cc1)C1CCCCN1CCCC(F)(F)F (stereo unspecified)	0.978	
c1ccc(CCN2CCC(C3CCN(Cc4ncc[nH]4)C3)CC2)cc1 (stereo unspecified)		0.785

Next part.

Structure (SMILES)	bacterial growth OD600 (polymyxin B 1 µg/mL)	bacterial growth OD600 (polymyxin B 0.75 µg/mL)
CCC(=O)N[C@@H]1c2ccccc2C2(CCN(Cc3ccc(F)c(OC)c3)CC2)[C@H]1OCCOC		0.882
CC(C)CN(C)C(=O)C1CCCN(C2CCN(c3nc4ccccc4o3)CC2)C1 (stereo unspecified)		0.95
CN(CC(O)c1ccccc1)C1CCN(c2cccc(NC(=O)CCCc3ccccc3)c2)CC1 (stereo unspecified)		0.719
COCCNC(=O)CCC1CCN(Cc2cnn(C)c2)CC1	0.928	
COCC1CCN(C(=O)c2cc(COc3cccc(F)c3)[nH]n2)C1 (stereo unspecified)	0.96	
CCOC(=O)N1CCN(Cc2c[nH]nc2-c2cccc3ccccc23)CC1	0.91	
CCc1cc(C(=O)N2CCCC(CO)(Cc3ccc(F)cc3)C2)n(C)n1 (stereo unspecified)	1.05	
CN(CCc1nc2cc(F)ccc2[nH]1)c1nc2nonc2nc1N1CCSCC1		0.933
O=C(NCc1ccccn1)C1CCN(C2CCN(Cc3cccc4nonc34)CC2)CC1	0.843	
COCC(=O)Nc1cc(C(=O)NCCc2ccco2)cc2ncn(CCc3ccccc3)c12		1
COc1cccc(CN2C[C@@H]3C[C@@H](c4ccc(CO)o4)N4CCC[C@@]34C2=O)c1	0.952	
CC(C)(C)C(=O)Nc1ccnn1C1CCN(C(=O)[C@@H]2C[C@H]2c2ccccc2)CC1	0.926	
CN(Cc1ccon1)c1ccc(C(=O)NCCC2CCCCN2C)cn1 (stereo unspecified)	0.939	
CCC(=O)N(C)C(Cc1ccc(F)cc1F)C1CCN(C(=O)CCc2ccccc2Cl)CC1 (stereo unspecified)		0.004
CC(=O)Nc1ccc(CNCc2cccnc2Oc2ccccc2C)cc1	0.916	
